Measurements reported in PubChem BioAssay AID743121 (NCATS, 2013)
Here is a random part of about 26,000 deposited reagents. Of all reagents, 167 (0.63%) got an active call. 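Calls are per gene from RSA p-values that are not deposited; an individual active-marked siRNA can sensitise only weakly.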 A number with no mark means an inactive call. Reagents against one gene are numbered here. Reagent sequences are not shown.

Aim: 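Genes whose silencing strengthens cell killing by camptothecin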 (primary screen)
Cells: MDA-MB-231 cells, a human breast cancer line
Reagent: single siRNA against human genes, 20 nM siRNA (0.8 pmol per well)
Timing: 120 h (drug added 48 h after transfection, read 72 h later)
Challenge: camptothecin 20 nM (about EC30) for 72 h; vehicle 0.1% DMSO in parallel plates
Read-out: 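Cell viability by ATP luminescence (CellTiter-Glo) as % of non-targeting siRNA wells, and the log2 ratio of viability without drug over viability with camptothecin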
Direction: log2 vehicle/camptothecin viability: higher = stronger sensitisation to camptothecin; viability with camptothecin and viability without drug: higher = more viable cells
Call rule: 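Active genes have an RSA gene-level p-value below 0.001, computed from the ratios of their separate siRNAs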

| gene symbol | reagent | log2 vehicle/camptothecin viability | viability with camptothecin (% of control) | viability without drug (% of control) |
| --- | --- | --- | --- | --- |
| CHM | 1 | 0.603 | 44.1 | 67 |
| CHM | 2 | 0.032 | 104 | 106 |
| CHM | 3 | 0.79 | 28.8 | 49.8 |
| CHM | 4 | -0.426 | 88.5 | 65.9 |
| NBR1 | 1 | 0.12 | 53.7 | 58.4 |
| NBR1 | 2 | -0.181 | 97.5 | 86 |
| NBR1 | 3 | -0.0405 | 70.4 | 68.5 |
| NBR1 | 4 | -0.118 | 106 | 97.3 |
| SP3 | 1 | -0.35 | 34.1 | 26.7 |
| SP3 | 2 | -0.17 | 106 | 94.3 |
| SP3 | 3 | -0.289 | 86.4 | 70.7 |
| SP3 | 4 | 0.823 | 10.1 | 17.9 |
| TNFRSF10B | 1 | 0.13 | 49 | 53.6 |
| TNFRSF10B | 2 | -0.0638 | 95.5 | 91.4 |
| TNFRSF10B | 3 | 0.0325 | 58.7 | 60.1 |
| TNFRSF10B | 4 | 0.0314 | 76.5 | 78.2 |
| KIF20A | 1 | 0.364 | 20.4 | 26.2 |
| KIF20A | 2 | -0.0888 | 83.2 | 78.2 |
| KIF20A | 3 | 0.0876 | 46.1 | 49 |
| KIF20A | 4 | -0.126 | 95.6 | 87.6 |
| FGGY | 1 | -0.069 | 82.2 | 78.4 |
| FGGY | 2 | -0.163 | 101 | 90 |
| FGGY | 3 | 0.0875 | 79.9 | 84.9 |
| FGGY | 4 | -0.168 | 68.1 | 60.6 |
| IGF1R | 1 | 0.0852 | 65.8 | 69.8 |
| IGF1R | 2 | 0.193 | 43.8 | 50.1 |
| IGF1R | 3 | -0.175 | 89.9 | 79.6 |
| HCN2 | 1 | -0.154 | 80.6 | 72.5 |
| HCN2 | 2 | -0.075 | 49.8 | 47.3 |
| HCN2 | 3 | -0.204 | 80.7 | 70.1 |
| HCN2 | 4 | -0.0947 | 38.9 | 36.5 |
| LOC402036 (retired record) | 1 | -0.272 | 81.9 | 67.8 |
| LOC402036 (retired record) | 2 | -0.514 | 28.7 | 20.1 |
| LOC402036 (retired record) | 3 | -0.16 | 85 | 76.1 |
| FGG | 1 | -0.552 | 85.5 | 58.3 |
| FGG | 2 | -0.0116 | 83.7 | 83 |
| FGG | 3 | -0.373 | 50.6 | 39 |
| STYK1 | 1 | 0.944 | 33.2 | 63.8 |
| STYK1 | 2 | -0.399 | 110 | 83.7 |
| STYK1 | 3 | 0.187 | 71 | 80.9 |
| STYK1 | 4 | -0.411 | 108 | 81 |
| ALDH9A1 | 1 | -0.187 | 96.7 | 85 |
| ALDH9A1 | 2 | -0.0714 | 91.5 | 87.1 |
| ALDH9A1 | 3 | -0.529 | 89.6 | 62.1 |
| ALDH9A1 | 4 | -0.0963 | 89.4 | 83.6 |
| GATA1 | 1 | -0.0116 | 88.8 | 88.1 |
| GATA1 | 2 | -0.196 | 94.1 | 82.1 |
| GATA1 | 3 | -0.366 | 33.2 | 25.7 |
| GATA1 | 4 | -0.141 | 75.1 | 68.1 |
| CCL11 | 1 | -0.0933 | 92 | 86.3 |
| CCL11 | 2 | -0.373 | 84.1 | 64.9 |
| CCL11 | 3 | -0.146 | 78.9 | 71.3 |
| CCL11 | 4 | 0.0784 | 44.8 | 47.3 |
| OR52H1 | 1 | -0.0716 | 98.1 | 93.4 |
| OR52H1 | 2 | -0.231 | 104 | 88.7 |
| OR52H1 | 3 | -0.0057 | 23.7 | 23.6 |
| OR52H1 | 4 | -0.149 | 67.8 | 61.2 |
| GTF2F1 | 1 | 0.17 | 57.4 | 64.6 |
| GTF2F1 | 2 | 0.00624 | 102 | 103 |
| GTF2F1 | 3 | -0.126 | 76.9 | 70.4 |
| SPTB | 1 | -0.362 | 78.6 | 61.1 |
| SPTB | 2 | 0.0807 | 62.2 | 65.8 |
| SPTB | 3 | -0.509 | 79.4 | 55.8 |
| SPTB | 4 | -0.201 | 106 | 92.3 |
| EIF2D | 1 | -0.27 | 51.7 | 42.9 |
| EIF2D | 2 | -0.09 | 74.8 | 70.3 |
| EIF2D | 3 | -0.296 | 55.9 | 45.5 |
| EIF2D | 4 | -0.549 | 117 | 80.2 |

Copied from the list:
Result of IGF1R #2 under “viability with camptothecin (% of control)”: 43.8
Entry for LOC402036 (retired record) #1 in “viability without drug (% of control)”: 67.8
SPTB #1, log2 vehicle/camptothecin viability → -0.362
For “viability without drug (% of control)”, TNFRSF10B #1 shows 53.6
Result of SP3 #1 under “viability without drug (% of control)”: 26.7
Under “log2 vehicle/camptothecin viability”, TNFRSF10B #4 has 0.0314
